From patent publication EP0294814B1, “Treating agents for renal diseases” (DAIICHI PHARMACEUTICAL CO., LTD., priority 1987, dated 1988)
For at least one compound, name, drawing or mass did not settle the structure.

Legend:
[1] = Hydronephrosis model: clearance test; type: in vivo, SD male rat; settings: Hydronephrotic Kidney, 0.3 µg/min infused into renal artery, mean±S.E. of 5 cases
Method: (§1) An abdominal incision was made in a SD male rat having a body weight of from 300 to 400 g under light anesthesia with diethyl ether. After the left urinary tract was ligated in the middle between the bladder and the kidney, the incision was closed, and the animal was fed on foods and tap water, ad lib.
(§2) After 18 hours from the ligation of the urinary tract, a cannula was inserted in the urinary tracts on both sides, the right femoral artery and the right femoral vein for collection of blood samples, infusion of inulin and infusion of p-aminohippuric acid, respectively, under Inactin anesthesia. Physiological saline containing 20 mg/ml of inulin and physiological saline containing 4 mg/ml of p-aminohippuric acid were continuously infused each at a rate of 0.4 ml/min in a 1/20 amount of the body weight. On confirming that the urinary output became constant after 50 minutes from the start of the infusion, urine was collected separately from the right and left urinary tracts at intervals of 20 minutes, and blood samples were obtained at the middle between urine collections. Immediately preceding the start of urine collection, infusion of physiological saline at a rate of 25 µl/min into the left femoral artery was instituted and continued for 40 minutes. Thereafter, a solution of a hydrochloride hemihydrate of Compound A in physiological saline was continuously infused at a dose level of 0.3 µg/25 µl/min/rat for 40 minutes into the inlet of the renal artery through a retrograde cannula inserted from the left femoral artery. Inulin levels in urine and in blood were determined according to the anthrone method (H.H. Hilger et al., Pflügers Arch Physiol., Vol. 267, 218 (1958)), and p-aminohippuric acid levels in urine and blood were determined according to the method of Smith et al. (H.W. Smith et al., J. Clin. Invest., Vol. 24, 388 (1945)), to calculate clearance values of inulin and p-aminohippuric acid.

Hydronephrotic Kidney = experiment: Hydronephrosis model: clearance test; type: in vivo, SD male rat; settings: 0.3 µg/min infused into renal artery, mean±S.E. of 5 cases
Method: as §1, §2

[2] = Diabetic nephropathy model: influence on body weight of SHR and diabetic SHR; type: in vivo, rat; settings: Diabetic SHR
Method: 5-Week old spontaneous hypertensive male rats (SHR) and normotensive Wister Kyoto rats (WKY), both available from Nippon Charles River, were used. Streptozotocin (STZ) was dissolved in a 0.1M citrate buffer solution (pH 4.5) and injected to the tail vein of the rat at a dose level of 50 mg/kg to prepare a diabetic rat. For control, the rat received 1 ml/kg of the citrate buffer solution alone through administration to the tail vein. After one week from the STZ administration, blood was taken from the tail vein of the unanesthetized rat, and the blood sugar level was measured. Those rats having a blood sugar level of […] or higher were used as diabetic rats. […]

For `O=C(O)c1ccc2c(c1)CCC(Cn1ccnc1)C2` (stereo not shown) [Compound A, 6-(1-imidazolylmethyl)-5,6,7,8-tetrahydronaphthalene-2-carboxylic acid], the “Inulin Clearance” value [1] was 0.34± 0.06 ml/min/ kidney, the “Urinary Output” value (Hydronephrotic Kidney) was 1.82± 0.21 µℓ/min/ kidney and the “p-Aminohippuric Acid Clearance” value (Hydronephrotic Kidney) was 2.43±0.34 ml/min/kidney. The “Body Weight (Mean±S.E.)” value ([2]; 1 mg/kg/day, 1 Month after start of admin.) was 239.1 ± 8.1 g, the “Body Weight (Mean±S.E.)” value ([2]; 1 mg/kg/day, 5 Months after start of admin.) was 325.4 ± 12.2 g and the “Body Weight (Mean±S.E.)” value ([2]; 10 mg/kg/day, 1 Month after start of admin.) was 239.4 ± 7.0 g. The “Body Weight (Mean±S.E.)” value ([2]; 10 mg/kg/day, 5 Months after start of admin.) was 335.9 ± 9.3 g.
